Experiments:
[1] = Formation of rutin-MGO adducts under simulated physiological condition (HPLC-DAD); details: 0.5 mM rutin + 0.5 mM MGO, 37°C, PBS pH 7.4, reaction time 24 h
[2] = samples with codes 1, 3 and 5-9; cited from earlier work

| SMILES | Formation level of adduct [1] | Content of oxidized adduct in commercial food samples, range [2] |
| --- | --- | --- |
| CC(=O)C(=O)c1c(O)c(C(=O)C(C)=O)c2oc(-c3ccc(O)c(O)c3)c(O[C@@H]3O[C@H](CO[C@@H]4O[C@@H](C)[C@H](O)[C@@H](O)[C@H]4O)[C@@H](O)[C@H](O)[C@H]3O)c(=O)c2c1O [6-(1,2-propanedione)-8-(1,2-propanedione)-rutin] | 53.35 µM | 0.29 to 2.79 mg/kg |
| CC(=O)C(=O)c1c(O)c(C(O)C(C)=O)c2oc(-c3ccc(O)c(O)c3)c(OC3OC(COC4OC(C)C(O)C(O)C4O)C(O)C(O)C3O)c(=O)c2c1O (centres unmarked) [6-(1,2-propanedione)-8-(1-acetol)-rutin] | 20.49 µM | 0.15 to 1.43 mg/kg |
| CC(=O)C(=O)c1c(O)c(C(O)C(C)=O)c(O)c2c(=O)c(O[C@@H]3O[C@H](CO[C@@H]4O[C@@H](C)[C@H](O)[C@@H](O)[C@H]4O)[C@@H](O)[C@H](O)[C@H]3O)c(-c3ccc(O)c(O)c3)oc12 (some centres unmarked) [6-(1-acetol)-8-(1,2-propanedione)-rutin] | 21.18 µM | 0 to 2.43 mg/kg |
| CC(=O)C(O)c1c(O)c(C(O)C(C)=O)c2oc(-c3ccc(O)c(O)c3)c(OC3OC(COC4OC(C)C(O)C(O)C4O)C(O)C(O)C3O)c(=O)c2c1O (centres unmarked) [Adduct A, 6-(1-acetol)-8-(1-acetol)-rutin] | 20.61 µM |  |
| CC(=O)C(O)c1c(O)c(C(O)C(C)=O)c2oc(-c3ccc(O)c(O)c3)c(OC3OC(COC4OC(C)C(O)C(O)C4O)C(O)C(O)C3O)c(=O)c2c1O (centres unmarked) [Adduct B, 6-(1-acetol)-8-(1-acetol)-rutin] | 28.67 µM |  |
